Source: PubChem BioAssay AID686998 (Broad Institute, 2013).

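Growth of the yeast Cryptococcus neoformans, measured by an Alamar Blue plate-reader signal after 24 hours of compound exposure.
Percent change in signal, scaled so neutral controls are 0 and positive controls are -100; more negative means stronger growth inhibition.
Inconclusive is filed for a poor-quality curve fit or a flat fit between -70% and -30%; active requires a fitted AC50 at most twice the top valid dose.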

Values are in %.
All entries here are filed as inconclusive.
Only part of the assay is shown, chiefly results filed as inconclusive.

{"smiles": "N#Cc1ccc(C23CC4(C2)[C@H](CN(Cc2ccc(C(F)(F)F)cc2)[C@@H]4c2ccccc2)C3c2ccccc2)cc1", "stereo": "some centres not stated", "condition": "at 35 µM (top of the series)", "activity change (%)": "-38.34"}
{"smiles": "CC(C)Oc1cccc(C(=O)NC(=S)Nc2ccccc2N2CCOCC2)c1", "condition": "at 35 µM (top of the series)", "activity change (%)": "-52.12"}
{"smiles": "Cc1ccccc1OCC(=O)NCc1ccccc1", "condition": "at 35 µM (top of the series)", "activity change (%)": "-43.75"}
{"smiles": "Cc1cc(OCC(=O)NC(C)c2ccccc2)ccc1[N+](=O)[O-]", "stereo": "configuration not stated", "condition": "at 35 µM (top of the series)", "activity change (%)": "-38.77"}
{"smiles": "Fc1ccccc1NC(=S)NN(Cc1ccccc1)c1ccccc1", "condition": "at 35 µM (top of the series)", "activity change (%)": "-74.75"}
{"smiles": "Cc1cccc(C)c1NC(=S)NN(Cc1ccccc1)c1ccccc1", "condition": "at 35 µM (top of the series)", "activity change (%)": "-34.49"}
{"smiles": "CN(C)CCCn1c(=O)n(C2CCCCC2)c(=O)c2c3c(sc21)CCCCC3", "condition": "at 35 µM (top of the series)", "activity change (%)": "-15.44"}
{"smiles": "Cc1cc(C)c(NC(=O)CNC(=O)CNC(=O)C2CCCCC2)c(C)c1", "condition": "at 35 µM (top of the series)", "activity change (%)": "-35.27"}
{"smiles": "COc1ccc(NC(=O)CSc2ncnc3c2cnn3Cc2ccccc2)cc1", "condition": "at 35 µM (top of the series)", "activity change (%)": "-44.27"}
{"smiles": "COC(=O)C1=C(C)N(Cc2ccccc2)C(=S)N[C@H]1c1cccc(C(F)(F)F)c1", "condition": "at 35 µM (top of the series)", "activity change (%)": "-46.73"}
{"smiles": "C[C@@H]1CN([C@H](C)CO)C(=O)c2cc(C3=CCCCC3)cnc2O[C@H]1CN(C)C(=O)Cc1cccnc1", "condition": "at 35 µM (top of the series)", "activity change (%)": "-22.91"}
{"smiles": "CC(NC1CCCC1)C(=O)Nc1ccccc1-c1ccccc1", "stereo": "configuration not stated", "condition": "at 35 µM (top of the series)", "activity change (%)": "-46.72"}
{"smiles": "Cc1ccc(OCC(=O)NC(C)c2ccccc2)cc1", "stereo": "configuration not stated", "condition": "at 35 µM (top of the series)", "activity change (%)": "8.462"}
{"smiles": "CCN1C(=S)N[C@@H](c2ccccc2)C(C(=O)OC)=C1C", "condition": "at 35 µM (top of the series)", "activity change (%)": "-50.3"}
{"smiles": "CCN(CC)CC(=O)N(CC(=O)Nc1c(C)cc(C)cc1C)C1CCCCC1", "condition": "at 35 µM (top of the series)", "activity change (%)": "-34.27"}
{"smiles": "CCNC(=O)CN(c1ccccc1)S(=O)(=O)c1ccc(Cl)cc1", "condition": "at 35 µM (top of the series)", "activity change (%)": "-51.12"}
{"smiles": "CCCC(=O)Nc1ccc2c(c1)OC[C@H](C)N(Cc1ccccn1)C[C@H](C)[C@H](OC)CN(C)C2=O", "condition": "at 35 µM (top of the series)", "activity change (%)": "9.986"}
{"smiles": "Cc1cc(C(=O)NC(=S)Nc2ccccc2N2CCOCC2)ccc1[N+](=O)[O-]", "condition": "at 35 µM (top of the series)", "activity change (%)": "-51.16"}
{"smiles": "COc1ccc(C2CC(c3cccs3)=NN2C(=O)c2ccco2)cc1OC", "stereo": "configuration not stated", "condition": "at 35 µM (top of the series)", "activity change (%)": "-31.96"}
{"smiles": "Cc1ccc(C(=O)NC(=S)Nc2cccc(NC(=O)c3ccccc3)c2)cc1[N+](=O)[O-]", "condition": "at 35 µM (top of the series)", "activity change (%)": "-34.27"}
{"smiles": "COC(=O)C1=C(C)N(C)C(=S)N(C)C1c1ccc(OC)cc1", "stereo": "configuration not stated", "condition": "at 35 µM (top of the series)", "activity change (%)": "-44.01"}
{"smiles": "COC(=O)C1=C(C)N(Cc2ccccc2)C(=S)NC1c1ccc(Cl)cc1", "stereo": "configuration not stated", "condition": "at 35 µM (top of the series)", "activity change (%)": "-66.19"}
{"smiles": "CNC[C@H]1OCCCC[C@H](C)Oc2ccc(NC(=O)Cc3ccccc3)cc2C(=O)N([C@H](C)CO)C[C@@H]1C", "condition": "at 35 µM (top of the series)", "activity change (%)": "-48.53"}
{"smiles": "O=C(NC[C@H]1[C@H](c2ccccc2)[C@H](CO)N1C(=O)Cc1cccnc1)C1CCC1", "condition": "at 35 µM (top of the series)", "activity change (%)": "-37.27"}
{"smiles": "C[C@@H]1CN([C@@H](C)CO)C(=O)Cc2cc(NS(=O)(=O)c3ccccc3)ccc2O[C@@H]1CN(C)Cc1ccc(Cl)c(Cl)c1", "condition": "at 35 µM (top of the series)", "activity change (%)": "-42.46"}
{"smiles": "O=C(NC(=S)Nc1ccc(N2CCOCC2)cc1)c1cccc([N+](=O)[O-])c1", "condition": "at 35 µM (top of the series)", "activity change (%)": "-4.057"}
{"smiles": "Cc1cccc(C)c1NC(=O)C1(NC(=O)C2CCC(=O)N2)CCCCC1", "stereo": "configuration not stated", "condition": "at 35 µM (top of the series)", "activity change (%)": "-6.452"}
{"smiles": "CCCC(=O)Nc1ccc2c(c1)OC[C@@H](C)N(Cc1ccccn1)C[C@@H](C)[C@H](OC)CN(C)C2=O", "condition": "at 35 µM (top of the series)", "activity change (%)": "6.68"}
{"smiles": "C[C@@H]1CCCCO[C@H](CN(C)Cc2ccccc2)[C@H](C)CN([C@@H](C)CO)C(=O)c2cc(NS(=O)(=O)c3cccs3)ccc2O1", "condition": "at 35 µM (top of the series)", "activity change (%)": "-36.24"}
{"smiles": "Cc1cc(C)c(NC(=O)C2CCCN2CCC(C)C)c(C)c1", "stereo": "configuration not stated", "condition": "at 35 µM (top of the series)", "activity change (%)": "-5.067"}
{"smiles": "O=C1CCC(C(=O)Nc2cccc3ccccc23)N1", "stereo": "configuration not stated", "condition": "at 35 µM (top of the series)", "activity change (%)": "-23.7"}
{"smiles": "c1ccc(-n2ncc3c(NCc4ccc5c(c4)OCO5)ncnc32)cc1", "condition": "at 35 µM (top of the series)", "activity change (%)": "-21.51"}
{"smiles": "COc1cc(OC)c(N(C)C(=O)c2cn(C)c(=O)c3cc(OC)c(OC)cc23)cc1Cl", "condition": "at 35 µM (top of the series)", "activity change (%)": "-16.11"}
{"smiles": "O=C(CN(c1ccccc1)S(=O)(=O)c1ccc(F)cc1)N1CCCCCC1", "condition": "at 35 µM (top of the series)", "activity change (%)": "-48.36"}
{"smiles": "O=C(Oc1ccc2c3c(c(=O)oc2c1)CCCC3)c1ccco1", "condition": "at 35 µM (top of the series)", "activity change (%)": "-53.69"}
{"smiles": "CC(C)Sc1nc2ncnc(N)c2[nH]1", "condition": "at 35 µM (top of the series)", "activity change (%)": "-34.02"}
{"smiles": "Cc1cc(C)cc(OCC(=O)NC(C)c2ccccc2)c1", "stereo": "configuration not stated", "condition": "at 35 µM (top of the series)", "activity change (%)": "-39.63"}

4 of the entries, repeated:

For Cc1cccc(C)c1NC(=S)NN(Cc1ccccc1)c1ccccc1 [at 35 µM (top of the series)] the result was activity change -34.49%.
For O=C(NC(=S)Nc1ccc(N2CCOCC2)cc1)c1cccc([N+](=O)[O-])c1 [at 35 µM (top of the series)] the result was activity change -4.057%.
For CCN(CC)CC(=O)N(CC(=O)Nc1c(C)cc(C)cc1C)C1CCCCC1 [at 35 µM (top of the series)] the result was activity change -34.27%.
For Cc1ccc(OCC(=O)NC(C)c2ccccc2)cc1 (configuration not stated) [at 35 µM (top of the series)] the result was activity change 8.462%.